PubChem BioAssay AID1259285 – Sanger Institute | 2017

- Test: 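Search of the kinome for kinases worth combining with drugs in colon cancer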 (primary screen)
- Cell system: human HCC56 colorectal cancer cells
- Knock-down reagent: siRNA pool against human genes
- Challenge: DMSO vehicle, or anchor drug BYL719 at 1 µM, cetuximab at 5 µg/ml, or trametinib at 10 nM
- Measured: 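Viability as a ratio to non-targeting pool wells, averaged over replicates and turned into a robust z-score; synergy scores with BYL719, cetuximab or trametinib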
- Reading the numbers: viability robust z-score, no drug: higher = more viable cells, weaker knock-down effect
- Rule for the call: 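Essential when the drug-free viability robust z-score falls below -3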
- Calls: active = essential without drug; inactive = no change without drug
The whole screen tested 794 reagents; shown is a part drawn at random. 20 of all reagents (2.5%) were called active. 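Calls rest on the drug-free arm alone and ignore synergy scores; viability ratios seem to be capped at 1.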 Unmarked entries are inactive. Not all columns of the deposit are shown. Not given: the amount of reagent, the time to read-out.

Against PRKD2, the entry reads viability robust z-score, no drug -3.1 (active).
Depletion of STK32A gave: viability robust z-score, no drug 0.458.
With knock-down of TBX3, the screen gave viability robust z-score, no drug 0.458.
PAK6 showed viability robust z-score, no drug 0.458.
IGF1R gave viability robust z-score, no drug 0.458.
Silencing of ROR1 came out at: viability robust z-score, no drug 0.458.
With knock-down of PCK2 the results were viability robust z-score, no drug 0.458.

Called active, among the entries above:
PRKD2 — viability robust z-score, no drug = -3.1 (active)

The listing continues.
DCLK1 gave viability robust z-score, no drug 0.458.
After knock-down of PRKCQ, the screen gave viability robust z-score, no drug -0.991.
After knock-down of MAST1, the record shows viability robust z-score, no drug -0.723.
After knock-down of PRKCE the results were viability robust z-score, no drug -1.55.
After knock-down of NME1, the record shows viability robust z-score, no drug 0.458.
FOXP1 showed viability robust z-score, no drug 0.458.
CDC73 scored viability robust z-score, no drug 0.222.
With knock-down of PRKAB2 the results were viability robust z-score, no drug -1.37.
With knock-down of TPK1, the screen gave viability robust z-score, no drug -0.63.
MYH10 showed viability robust z-score, no drug 0.215.
